Experimental findings from article doi:10.1101/2021.02.15.430920 are described below.

Assay [1] concerns the target T1, His-SUMO-tagged vWA domain of AtRPN10 with 38GA39->HS (A. thaliana) (UniProt P55034).
T1 sequence: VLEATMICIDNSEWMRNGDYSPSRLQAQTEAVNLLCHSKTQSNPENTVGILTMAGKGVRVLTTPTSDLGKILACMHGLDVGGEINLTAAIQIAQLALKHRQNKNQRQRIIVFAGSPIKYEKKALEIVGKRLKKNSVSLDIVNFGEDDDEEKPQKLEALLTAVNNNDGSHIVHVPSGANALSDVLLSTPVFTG
Description: pull-down.

The target of assay [2] is T2, A. thaliana RPN10_38GA39->HS (A. thaliana) (UniProt P55034).
T2 sequence: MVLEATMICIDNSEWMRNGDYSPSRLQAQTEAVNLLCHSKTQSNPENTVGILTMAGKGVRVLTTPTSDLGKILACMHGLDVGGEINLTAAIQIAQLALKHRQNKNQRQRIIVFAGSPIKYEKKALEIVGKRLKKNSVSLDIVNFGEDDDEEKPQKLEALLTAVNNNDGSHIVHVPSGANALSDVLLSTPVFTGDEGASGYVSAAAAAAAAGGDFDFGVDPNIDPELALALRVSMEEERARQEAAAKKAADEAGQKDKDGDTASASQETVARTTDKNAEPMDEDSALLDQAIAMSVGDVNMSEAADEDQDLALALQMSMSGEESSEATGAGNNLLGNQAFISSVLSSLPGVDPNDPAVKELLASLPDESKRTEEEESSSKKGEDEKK
Description: two-hybrid.

In assay [3] the target is T3, A. thaliana RPN10_56GKG58->K (A. thaliana) (UniProt P55034).
T3 sequence: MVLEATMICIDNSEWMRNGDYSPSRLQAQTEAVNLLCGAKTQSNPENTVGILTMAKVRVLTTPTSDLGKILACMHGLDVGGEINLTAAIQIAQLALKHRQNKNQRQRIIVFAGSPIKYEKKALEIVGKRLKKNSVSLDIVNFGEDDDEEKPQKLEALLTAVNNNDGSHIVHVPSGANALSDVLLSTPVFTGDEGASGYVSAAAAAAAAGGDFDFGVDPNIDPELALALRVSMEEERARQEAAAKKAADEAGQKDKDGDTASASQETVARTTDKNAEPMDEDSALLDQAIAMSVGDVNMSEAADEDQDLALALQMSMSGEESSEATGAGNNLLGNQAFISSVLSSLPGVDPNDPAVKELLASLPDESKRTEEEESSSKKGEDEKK
The assay can be described thus: two-hybrid.

Assay [4] deals with T4, A. thaliana RPN10, full-length, yeast two-hybrid fusion (A. thaliana) (UniProt P55034).
T4 sequence: T2 sequence with H38G, S39A
Description: two-hybrid.

Numbering of substitutions follows the chain as printed. These are yes or no findings as the source states them, for the method shown. Some binding calls cover weakened binding; strength is not graded here. For some of these results: Where a sequence is shown, tags or fusion partners need not be part of it.

B1: ZnF domain of AtSPL5 (Ser60-Leu127), recombinant (domain or fragment, UniProt Q9S758 60-127)
chain: SRLCQVDRCTVNLTEAKQYYRRHRVCEVHAKASAATVAGVRQRFCQQCSRFHELPEFDEAKRSCRRRL
In the case of B1, in assay [1], the binding result is on record as “no binding (tested: 20 uM)”.

B2: A. thaliana RADIATION …23 (RAD23B) protein (protein, UniProt Q84L33 1-371)
chain: MKLTVKTLKGSHFEIRVLPSDTIMAVKKNIEDSQGKDNYPCGQQLLIHNGKVLKDETSLVENKVTEEGFLVVMLSKSKSGGSAGQASVQTSSVSQPVSATTSSTKPAAPSTTQSSPVPASPIPAQEQPAAQTDTYGQAASTLVSGSSLEQMVQQIMEMGGGSWDKETVTRALRAAYNNPERAVDYLYSGIPQTAEVAVPVPEAQIAGSGAAPVAPASGGPNSSPLDLFPQETVAAAGSGDLGTLEFLRNNDQFQQLRTMVHSNPQILQPMLQELGKQNPQLLRLIQENQAEFLQLVNEPYEGSDGEGDMFDQPEQEMPHAINVTPAEQEAIQRLEAMGFDRALVIEAFLACDRNEELAANYLLENSGDFED
With B2, the binding entry in assay [2], in assay [3] and in assay [4] was “binds” each time.
